Tested on: mitochondrion of U251MG, which is a human malignant glioma cell
Experiment: Distribution pattern of nanopreparation in intracellular organelles (confocal/multiphoton laser scanning microscopy)
Format: cell-based
Details: 5 μM, 2 hours, Mito Tracker deep red FM

How did the “distribution of hypericin in mitochondria (image)” value turn out when Cc1cc(O)c2c(=O)c3c(O)cc(O)c4c5c(O)cc(O)c6c(=O)c7c(O)cc(C)c8c1c2c(c34)c(c78)c65 [Comparative Example 2, Hypericin] was run?
The value was “coexist only in a portion of mitochondria”.

Reference: patent US9393308B2, “Micelle structure of nano preparation for diagnosis or treatment of cancer disease and preparation method thereof” (KOREA ADVANCED INSTITUTE OF SCIENCE AND TECHNOLOGY, priority 2013, dated 2016)
